Reference: PubChem BioAssay AID2685 (National Center for Advancing Translational Sciences (NCATS), 2010)
The other results are listed elsewhere or left out. These are further read-outs of the screen, such as a control signal, another cell line or another target. No call is given for them. The list favours compounds with an active or inconclusive main result. Words in brackets tell the shape of the fitted curve; partial curves, single points and poor fits give uncertain potencies.

Experiment: qHTS Assay for Lipid Storage Modulators in Drosophila S3 Cells;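 as to cell number change: cells counted by Cell Tracker Red CMTPX staining in the red channel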
Details: BODIPY lipid droplet fluorescence, 18-24 h; for cell number change: measured here: cell count max response, cells fed with added oleic acid
Procedure, shortened: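 Drosophila S3 cells got compounds at several concentrations plus oleic acid (400 uM solution). Laser-scanning cytometry with 488 nm excitation read lipid droplets at 500-530 nm and cells at 575-640 nm. Percent activity was relative to 20 uM Triacsin C.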

[1] = measured here: cell number channel AC50, cells fed with added oleic acid
[2] = measured here: lipid fluorescence (Fed channel) AC50, cells fed with added oleic acid

| Structure (SMILES) | cell number change | AC50 [1] | AC50 [2] |
| --- | --- | --- | --- |
| COc1cc(NC(=O)COc2ccccc2)ccc1NC(=O)c1ccco1 | -9.4% | – | – |
| COc1ccc(N/C=C\C(=O)c2ccc3c(c2)OCO3)cc1 | 46.9% | 0.731 µM [rising, full curve, poor fit] | – |
| CCc1ccccc1N(CC(=O)NCC1CCCO1)C(=O)CCC(=O)Nc1nccs1 (configuration not stated) | 20.6% | – | – |
| CCN(CC)CCn1c(=N)n(CC(=O)c2ccc(C)cc2)c2ccccc21 | -14.7% | – | – |
| O=C(NCCCN1CCC(Cc2ccccc2)CC1)C1CCC(=O)N1C1CCCC1 (configuration not stated) | 19.3% | – | 0.0517 µM [falling, full curve, poor fit] |
| CC(C)C(NC(=O)c1ccccc1)C(=O)N1CCN(C/C=C/c2ccccc2)CC1 (configuration not stated) | -19.1% | – | 29.1 µM [falling, single point] |
| O=C(CNC(=O)C12CC3CC(CC(C3)C1)C2)OCc1ccc(F)cc1Cl | -4.76% | – | 0.13 µM [falling, full curve, poor fit] |
| CCOC(=O)CC(=O)Nc1ccc(C)cc1 | 3.94% | – | 14.6 µM [rising, single point] |
| COc1cccc(OCCn2c(C)c(/C=N/n3cnnc3)c3ccccc32)c1 | -51.6% | 9.2 µM [falling, partial curve, poor fit] | 7.31 µM [falling, partial curve] |
| COc1ccccc1NS(=O)(=O)c1cccc(C(=O)NCC(c2ccco2)N(C)C)c1 (configuration not stated) | 24.2% | – | – |
| CC(=O)N1C(O)CC(C)N1c1ccccc1 (configuration not stated) | -66.7% | 0.58 µM [falling, full curve] | – |
| CCc1ccc(NC(=O)[C@H](C)NC(=O)C2CCN(C(=O)[C@@H](N)Cc3ccccc3)CC2)cc1 | -4.31% | – | 0.58 µM [falling, single point] |
| O=C1N=c2ccccc2=C1c1c(O)n(-c2cccc(F)c2)[nH]c1=O | – | 6.51 µM [rising, single point] | – |
| N#C/C(=C/c1ccc(O)c(O)c1)C(=O)NCc1ccc(Cl)cc1 | -13.3% | – | 29.1 µM [falling, single point] |
| O=C(Nc1ccc(Cl)cc1)C1CCN(C(=O)c2ccco2)CC1 | 13.9% | – | – |
| COc1coc(C(O)C[N+](=O)[O-])cc1=O (configuration not stated) | 2.63% | – | 0.82 µM [falling, full curve, poor fit] |
| O=S(=O)(c1ccccc1F)N1CCN(c2nc(-c3cccnc3)nc3ccccc23)CC1 | 14.1% | – | 6.51 µM [falling, single point] |
| Cc1cc(NC(=O)COC(=O)C2CCN(S(=O)(=O)c3cccc(Cl)c3Cl)CC2)no1 | -20.1% | 4.11 µM [falling, full curve, poor fit] | 23.1 µM [falling, partial curve] |
| O=C(NCCc1nnc2ccc(NCCCN3CCOCC3)nn12)c1ccccc1F | -14.1% | 4.11 µM [falling, partial curve] | – |
| CC(C)C(=O)N1CCN(c2ccc([N+](=O)[O-])cc2Cl)CC1 | 16.1% | – | – |

Four entries from above, set out differently.
COc1ccccc1NS(=O)(=O)c1cccc(C(=O)NCC(c2ccco2)N(C)C)c1 (configuration not stated)
  cell number change: 24.2%
CC(=O)N1C(O)CC(C)N1c1ccccc1 (configuration not stated)
  cell number change: -66.7%; AC50 [1]: 0.58 µM [falling, full curve]
CCc1ccc(NC(=O)[C@H](C)NC(=O)C2CCN(C(=O)[C@@H](N)Cc3ccccc3)CC2)cc1
  cell number change: -4.31%; AC50 [2]: 0.58 µM [falling, single point]
O=C1N=c2ccccc2=C1c1c(O)n(-c2cccc(F)c2)[nH]c1=O
  AC50 [1]: 6.51 µM [rising, single point]

Later entries.

| Structure (SMILES) | cell number change | AC50 [1] | AC50 [2] |
| --- | --- | --- | --- |
| COc1ccccc1C(c1nnnn1C(C)(C)C)N1CCCCCC1 (configuration not stated) | -5.51% | – | 5.8 µM [rising, single point] |
| CC1CCCN(C(C(=O)Nc2ccc3c(c2)OCO3)c2ccccc2)C1 (configuration not stated) | 10.3% | – | 2.06 µM [rising, single point] |
| CCNC(=O)CCC(=O)Nc1cc(Cl)ccc1C | 5.09% | – | 2.59 µM [rising, single point] |
| CCCCCCSc1cccc(-c2nc3ccc(C)cn3c2NCc2ccccc2)c1 | 17.6% | – | 0.146 µM [falling, partial curve, poor fit] |
| Cc1cccc(NC(=O)CC(C)S(=O)(=O)c2ccc3c(c2)NC(=O)CO3)c1C (configuration not stated) | -9.7% | – | 3.66 µM [falling, single point] |
| O=C(CSc1nc2c(c(=O)n1-c1ccc(Cl)cc1)SCC2)Nc1ccc2c(c1)OCCO2 | – | 0.731 µM [rising, single point] | – |
| CCCCn1c(-c2ccncc2)nc2c1c(=O)[nH]c(=O)n2CC(C)C | -7.43% | – | 1.64 µM [rising, partial curve] |
| CCCCNC(=O)N(C)c1nncnc1C(=O)NC | -21.1% | – | 0.206 µM [falling, full curve] |
| CC1CCCN(c2nc(NCc3ccco3)nc(N)c2[N+](=O)[O-])C1 (configuration not stated) | -33.3% | 32.6 µM [falling, single point] | – |
| Cc1ccc(C)c(S(=O)(=O)NC(CCC(N)=O)C(=O)O)c1 (configuration not stated) | 4.8% | – | 0.116 µM [falling, full curve] |
| Cc1cc(C)c(OCCCCCn2ccnc2)c(C)c1 | -6.67% | – | 20.6 µM [falling, single point] |
| COc1cc(/C=C2\SC(=O)N(CC(=O)Nc3ccc(C)cc3)C2=O)cc(Cl)c1OCC(=O)O | 2.93% | – | 29.1 µM [rising, single point] |
| CCc1ccccc1NC(=O)CSC1=C(C#N)C(c2ccc3c(c2)OCO3)C2=C(CCCC2=O)N1 (configuration not stated) | -2.21% | – | 0.164 µM [rising, full curve, poor fit] |
| CC1(c2ccc([N+](=O)[O-])cc2)NC(=O)N(CC(=O)Nc2ccc(N3CCCCC3)cc2)C1=O (configuration not stated) | 36.5% | 16.4 µM [rising, single point] | – |
| COc1ccc(C(=O)/C=C/c2ccc(-c3ccccc3)cc2)cc1CSCC(=O)O | 42.7% | 13 µM [rising, partial curve, poor fit] | – |
| c1ccc(Cn2nc(-c3ccccc3)nc2-c2ccccc2)cc1 | 34.6% | 4.61 µM [rising, partial curve] | 9.2 µM [rising, partial curve] |
| CC1CCN(S(=O)(=O)c2ccc(NC(=O)c3ccccc3F)cc2)CC1 | -17.5% | 0.13 µM [falling, full curve, poor fit] | – |
| CCc1ccc2oc(=O)cc(CN3CCN(CCO)CC3)c2c1 | -89.1% | 18.4 µM [falling, partial curve] | 29.1 µM [falling, single point] |
| CCN(CC)C(=O)c1sc2nc(N3CCOCC3)c3c(c2c1N)CCCC3 | 13.7% | 0.259 µM [rising, full curve, poor fit] | 0.164 µM [rising, full curve] |
| CC(=O)Nc1cccc(OCC(=O)/C=C2\N(C)c3ccccc3C2(C)C)c1 | -14.4% | – | 0.651 µM [falling, single point] |

| Structure (SMILES) | cell number change | AC50 [1] | AC50 [2] |
| --- | --- | --- | --- |
| O=C(COc1ccc2ccccc2c1)NN1C(=O)c2ccccc2C1=O | -36.9% | 1.16 µM [falling, full curve, poor fit] | – |
| O=C1OC2(CCCCC2)OC(=O)C1=CNc1nccs1 | -11.6% | – | 2.31 µM [falling, full curve, poor fit] |
| Oc1cccc(/C=N/N2CCCCC2)c1O | 52.5% | 29.1 µM [rising, single point] | 29.1 µM [rising, single point] |
| CCC1(c2ccccc2)NC(=O)N(CC(=O)N(C)CC(=O)Nc2cccc(OC)c2)C1=O (configuration not stated) | 1.8% | – | 20.6 µM [falling, partial curve, poor fit] |
| CCN(CC)C(=O)Oc1ccc2oc(=O)cc(-c3cc4cccc(OC)c4o3)c2c1 | -4.89% | – | – |
| CCCC(=O)NC(=S)Nc1ccc(Cl)cn1 | 0.277% | – | 16.4 µM [falling, single point] |
| CCN(C(=O)CN1CCN(c2ccc(OC)cc2)CC1)c1c(N)n(Cc2ccccc2)c(=O)[nH]c1=O | 7.14% | – | 0.00461 µM [falling, full curve, poor fit] |
| C=CCc1cccc2cc(C(=O)N(C)C)c(=O)oc12 | -30.3% | 0.103 µM [falling, full curve, poor fit] | – |
| Cc1cccc(C(=O)Nc2oc(-c3ccccc3)cc2C#N)c1 | 1.23% | – | – |
| Cc1cc(C)cc(OCC(=O)OCC(=O)Nc2cc(C)nn2-c2ccccc2)c1 | -16.2% | 0.103 µM [falling, full curve, poor fit] | 0.103 µM [falling, full curve, poor fit] |
| O=C(COC(=O)c1ccc(S(=O)(=O)NCc2ccco2)cc1)NCCC1=CCCCC1 | -2.44% | – | 4.61 µM [falling, single point] |
| CCCc1cc(=O)n2[nH]c(C)cc2n1 | 6.39% | – | 2.31 µM [rising, single point] |
| Cc1cc(C)nc(-n2nc(C)cc2Nc2ccccc2)n1 | -7.34% | – | – |
| O=C(CCN1C(=O)c2ccccc2C1=O)Nc1ccncc1 | -14.1% | 0.82 µM [falling, full curve, poor fit] | 29.1 µM [falling, single point] |
| O=C(NNC(=O)c1ccccc1Cl)c1ccncc1 | -1.75% | – | 0.92 µM [falling, full curve, poor fit] |
| CC(=O)c1c(C)[nH]c(=S)c(C#N)c1-c1ccc(Cl)cc1 | -23.6% | – | 23.1 µM [falling, partial curve, poor fit] |
| O=C(COC(=O)c1ccc(F)cc1F)Nc1ccc2[nH]c(=O)[nH]c2c1 | 15.3% | – | – |
| NS(=O)(=O)c1ccc(NC(=O)COC(=O)C2(c3ccc(F)cc3)CCCC2)cc1 | -12% | – | 29.1 µM [falling, single point] |
| O=C(c1ccc2c(c1)OCO2)C1CCCN(Cc2ccc(OC(F)F)cc2)C1 (configuration not stated) | -31% | 29.1 µM [falling, single point] | 29.1 µM [falling, single point] |
| Cc1ccc(N(CC(=O)N/N=C/c2ccc(OC3CSC3)cc2)S(=O)(=O)c2ccccc2)c(C)c1 | -29.3% | – | 16.4 µM [falling, single point] |
